# Library screening results

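Viability assay of Plasmodium falciparum sporozoites; the read-out is not stated. The concentration is filed as 10 mM, unlikely as a test dose, so the dose is not known. Higher reads as lower viability (inferred: compounds with an IC50 in retests scored well above the rest). Strong results were mostly tested again. About 34,000 compounds were tested under these conditions; 0.84% (about 280) showed 50% or more at least once.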

Values are the deposited “Percent Effect”, in %.
How 0% and 100% were set is not recorded. Most values in the screen are low, and negative values occur.
This is an unselected part of the compounds tested.
Two or more numbers in one place are separate tests of the same structure; such repeats can differ widely.

| # | compound | Percent Effect |
|---|---|---|
| 1 | `CC(NC(=O)NCCCc1n[nH]c(N)c1C#N)c1ccc(F)c(F)c1` (centres undefined) | 12.98 |
| 2 | `c1cc(CNc2ncc(-c3cnccn3)c(C3CC3)n2)ccn1` | -2.749 |
| 3 | `Cc1cc2cc(C(=O)N[C@@H]3CC[C@@H](N4CCNC(=O)C4)[C@@H]3O)ccc2o1` | -1.506 |
| 4 | `Cc1nc(O)cc(C2CCCN2CCO)n1` (centres undefined) | 15.51 |
| 5 | `Cc1ccc(N2CCCC(Nc3nn4cc(C)nc4s3)C2)nn1` (centres undefined) | -1.644 |
| 6 | `CCc1nc(CN(C)C2CCN(Cc3ccc(C#N)cc3F)C2)no1` (centres undefined) | 3.52 |
| 7 | `[H][C@]12CCN(C(=O)Cc3ccc(OC)cc3)CC[C@@]1([H])S(=O)(=O)N(C)C2` | 14.81 |
| 8 | `CC(=O)N1CCN(Cc2ccsc2)CC2(CC(=O)N(C)C2)C1.O=C(O)C(F)(F)F` (centres undefined) | 1.625 |
| 9 | `CCNC(=O)C1(Cc2cc(-c3ccccc3)no2)CCCN(C)C1` (centres undefined) | 4.537 |
| 10 | `Cc1ncc(CN(C)c2nc3c(cnn3C(C)(C)C)c(=O)[nH]2)s1` | 5.228 |
| 11 | `CCCc1n[nH]c(C2CN(C(=O)c3n[nH]c4ccccc34)CCO2)n1` (centres undefined) | -1.347 |
| 12 | `CN(CCC(O)c1ccccc1)Cc1ccccc1C#N` (centres undefined) | -18.17 |
| 13 | `O=C(O)C(F)(F)F.[H][C@]12CC(=O)N(CC3CC3)[C@@]1([H])CCN2Cc1cccc(C)n1` | 7.443 |
| 14 | `Cc1ccsc1CN1CCC(c2cc(C(C)C)n[nH]2)CC1` | 4.009 and -1.109 |
| 15 | `Cc1nccn1-c1cccc(C2CCCN2S(=O)(=O)c2cn(C)cn2)n1` (centres undefined) | 3.062 |
| 16 | `NC(=O)c1cccc(OCC(=O)N2CCCC(n3ccnc3)C2)c1` (centres undefined) | -0.2452 |
| 17 | `O=C(Nc1ccccc1OCCc1ccccn1)N1CC[C@@H](O)C1` | 13.97 |
| 18 | `c1cnc(-c2nc(CNC3CCc4ncnn4C3)cs2)nc1` (centres undefined) | 13.19 |
| 19 | `c1ccc(C[C@H]2[C@H](N3CCOCC3)CCN2Cc2cccnc2)cc1` | -7.684 |
| 20 | `Cc1cc(C[S+]([O-])CC(=O)NCC(C)C)no1` (centres undefined) | -7.195 |
| 21 | `O=C(COCC(F)(F)F)N1CCCC(n2cccn2)C1` (centres undefined) | 34.35 and -11.27 and 4.694 |
| 22 | `O=C(O)C(F)(F)F.[H][C@]12CCC[C@@]1(COCC1CC1)CN(Cc1cnn(C)c1)C2` | -5.779 |
| 23 | `Cc1nc(C)c(CC(=O)N2CCC(c3ccn4nccc4n3)CC2)s1` | 11.03 |
| 24 | `COc1cccc(N2CCN(C(=O)CCO)CC2=O)c1` | -4.153 |
| 25 | `CC(=O)N1CCCC1c1cc(N2CCN(C3CCCC3)CC2)cc(C)n1` (centres undefined) | -8.009 |
| 26 | `Cc1cncc(C2CCCN(Cc3cccn3C)C2)n1` (centres undefined) | -17.43 |
| 27 | `CCC(CO)NC(=O)Nc1cc(F)ccc1Br` (centres undefined) | -2.775 |
| 28 | `Nc1nccc(C2CCN(CCO)C2)n1` (centres undefined) | -1.936 |
| 29 | `O=C1C(N2CCN(c3ccccc3Cl)CC2)CCN1C1CCOCC1` (centres undefined) | -4.338 |
| 30 | `O=C(Cc1ccccc1)NCc1ncc(-c2ccccc2C(=O)O)cn1` | -5.999 |
| 31 | `c1coc(-c2nnc(CN(Cc3cccs3)CC3CCCO3)o2)c1` (centres undefined) | -1.956 |
| 32 | `Cc1nc(C)n(CC2CCCCN2Cc2nnc(-c3ccco3)o2)n1` (centres undefined) | -9.314 |
| 33 | `CCOCC(=O)NC1(c2nc(C)cs2)CCCC1` | -8.214 |
| 34 | `O=C(O)C(F)(F)F.[H][C@@]12CCCO[C@]1([H])[C@H](N(C)C)CN2C(=O)Cc1cccs1` | -3.327 |
| 35 | `O=C(CSc1ccc2c(c1)OCCO2)NS(=O)(=O)C1CCCCC1` | -7.839 |
| 36 | `O=C(NCC1COCc2c(-c3cccnc3)nnn2C1)c1cccs1.O=C(O)C(F)(F)F` (centres undefined) | -3.244 |
| 37 | `O=C(CN1CCCCC1)N1CCC(c2cc(=O)n3c(n2)CCCCC3)C1.O=C(O)CC(O)(CC(=O)O)C(=O)O` (centres undefined) | 6.648 |
| 38 | `CCS(=O)(=O)N1CCN(C(=O)c2cnc3[nH]nc(C)c3c2)CC1` | -1.346 |
| 39 | `N#CC(Sc1nnnn1C1CCOCC1)C1CCCCC1` (centres undefined) | -10.73 |
| 40 | `Cc1cc(C)c(CNC(=O)CC2CCCO2)c(=O)[nH]1` (centres undefined) | 13.91 |
| 41 | `O=C(O)C(F)(F)F.[H][C@@]12CCN(Cc3ccoc3)C[C@]1([H])O[C@H](C(=O)NC1CC1)C2` | 13.05 |
| 42 | `Cc1ccccc1C1(C(=O)NCCN(C(C)C)C(C)C)CCOCC1` | 2.703 |
| 43 | `CN(C)S(=O)(=O)c1ccc2c(c1)N(Cc1nccn1C)CC2` | -2.216 |
| 44 | `CC(C)C1SCC(=O)Nc2c1cnn2-c1ccc(Cl)cc1F` (centres undefined) | -16.76 |
| 45 | `COc1ccc2c(c1)Cc1c-2nc(N)c(C#N)c1C1CCOC1` (centres undefined) | -1.074 |
| 46 | `Cc1ncc(CN2Cc3ccccc3O[C@]3(CC[C@H](CO)CC3)C2)cn1.Cl` | 0.8294 |
| 47 | `Cc1nc(CN2CCCC(NCc3ccc(C(N)=O)cc3)C2)no1` (centres undefined) | 10.53 |
| 48 | `COc1ccc(NC(=O)Cn2nc(C)c(C)cc2=O)cc1OC` | -6.235 |
| 49 | `Cc1ccccc1OCCN1CCn2c(C)nnc2C1` | -22.65 and 50.81 and -8.547 |
| 50 | `CC(C)c1nccn1C1CCCN(C(=O)c2cn3cccnc3n2)C1` (centres undefined) | -2.042 |
| 51 | `Cc1nn(C)c(C)c1C1COCCN1C(=O)c1ccc(Cl)o1` (centres undefined) | 5.489 |
| 52 | `Cn1c(NCC(O)c2ccc(Cl)cc2)c(C#N)c(=O)n(C)c1=O` (centres undefined) | 4.239 |
| 53 | `CCc1nc(C2CCCN(C(=O)c3ccc(OC(C)C)nc3)C2)no1` (centres undefined) | -14.55 and -4.233 and 6.243 |
| 54 | `O=C(c1sccc1C1CC1)N1CCN(c2ncccn2)CC1` | -15.78 |
| 55 | `Cc1nc(C2CCCN(C(=O)CCCn3cccn3)C2)no1` (centres undefined) | 6.705 |
| 56 | `Cc1ccc(S(=O)(=O)N2CCN(Cc3ccncc3)CC2)c(Cl)c1` | -1.432 |
| 57 | `O=C(O)C(F)(F)F.[H][C@]12CCN(C(=O)c3ccno3)[C@@]1([H])CC[C@H](COCCN1CCCC1)O2` | 0.2286 |
| 58 | `Cc1cnn(CC2CCCN2Cc2cc(=O)n3cccc(C)c3n2)c1` (centres undefined) | -3.922 |
| 59 | `[H][C@@]12CN(C(C)=O)C[C@]1(C(=O)NC)CCC21CCN(S(C)(=O)=O)CC1` | -0.4386 |
| 60 | `c1ccc(N2CCC(OCC3CCCCO3)CC2)nc1` (centres undefined) | -21.89 |
| 61 | `CN(Cc1ccc(F)cc1)CC1(O)CCN(C(=O)c2cccn2C)C1` (centres undefined) | -11.42 |
| 62 | `O=C(CCn1ccccc1=O)Nc1ccc(I)cc1` | -0.9227 |
| 63 | `Nc1ncnc2nc(C3CCN(C(=O)Cc4ccccc4)C3)ccc12` (centres undefined) | -3.82 |
| 64 | `Cn1nccc1CCC(=O)N1CCCC(Cc2cccnc2)C1` (centres undefined) | -3.013 |
| 65 | `Cn1cccc1C(=O)N1CCC2(CC1)CN(c1ccsc1)C(=O)CO2` | 6.1 |
| 66 | `CC(C)n1nc2c(cc1=O)CN(c1ncnc3sccc13)CC2` | -7.953 |
| 67 | `N#CC1(NC(=O)c2ccn(-c3ccccc3Cl)n2)CCSC1` (centres undefined) | -24.16 |
| 68 | `[H][C@@]12CCN(c3ncccn3)[C@]1([H])CC[C@H](c1nc(C)no1)O2` | 9.457 |
| 69 | `O=C(O)C(F)(F)F.[H][C@@]12CN(CC3CCOC3)C[C@]1([H])OCCN2c1cnccn1` (some centres undefined) | 9.107 |
| 70 | `COc1cccc(CN(C)Cc2ccc(C#N)cc2)c1OC` | -15.78 |
| 71 | `CN(CCc1ccncc1)Cc1c(C2CCCC2)[nH]c2ncccc12` | -5.454 |
| 72 | `CCOC[C@@H]1CCC[C@@]12CN(Cc1cccnc1)CCO2` | -1.804 |
| 73 | `NC(=O)CSCC(=O)N1CCc2cc(Cl)cc(Cl)c2C1` | 1.527 |
| 74 | `CCN(C(C)=O)C1CCN(c2nccc(CCC(F)(F)F)n2)C1` (centres undefined) | 7.105 |
| 75 | `CC1CCN(S(=O)(=O)c2cccn(CC(=O)N3CCOCC3)c2=O)CC1` | 7.018 |
| 76 | `O=C(O)C(F)(F)F.OCCOCc1n[nH]c2c1CN(Cc1ccccn1)C2` | 1.959 |

Once more, the final 7:

With COc1cccc(CN(C)Cc2ccc(C#N)cc2)c1OC the screen gave -15.78%.
With CN(CCc1ccncc1)Cc1c(C2CCCC2)[nH]c2ncccc12 the screen gave -5.454%.
With CCOC[C@@H]1CCC[C@@]12CN(Cc1cccnc1)CCO2 the screen gave -1.804%.
With NC(=O)CSCC(=O)N1CCc2cc(Cl)cc(Cl)c2C1 the screen gave 1.527%.
With CCN(C(C)=O)C1CCN(c2nccc(CCC(F)(F)F)n2)C1 (centres undefined) the screen gave 7.105%.
With CC1CCN(S(=O)(=O)c2cccn(CC(=O)N3CCOCC3)c2=O)CC1 the screen gave 7.018%.
With O=C(O)C(F)(F)F.OCCOCc1n[nH]c2c1CN(Cc1ccccn1)C2 the screen gave 1.959%.

The values are deposited in ChEMBL (CHEMBL3988442, “University of Dundee, Small-Polar-MMV Screening Library” (2021)).